According to publication PMC9163669:
No constants are given. Whether binding was seen depends on the method and setting. Binding seen in cells or lysates may run through a third protein. Some results given as binding are weak or reduced against the parent protein; the word gives no strength.

By UniProt entry, the sequences of proteins in these tests, tags left out.
UniProt O14746: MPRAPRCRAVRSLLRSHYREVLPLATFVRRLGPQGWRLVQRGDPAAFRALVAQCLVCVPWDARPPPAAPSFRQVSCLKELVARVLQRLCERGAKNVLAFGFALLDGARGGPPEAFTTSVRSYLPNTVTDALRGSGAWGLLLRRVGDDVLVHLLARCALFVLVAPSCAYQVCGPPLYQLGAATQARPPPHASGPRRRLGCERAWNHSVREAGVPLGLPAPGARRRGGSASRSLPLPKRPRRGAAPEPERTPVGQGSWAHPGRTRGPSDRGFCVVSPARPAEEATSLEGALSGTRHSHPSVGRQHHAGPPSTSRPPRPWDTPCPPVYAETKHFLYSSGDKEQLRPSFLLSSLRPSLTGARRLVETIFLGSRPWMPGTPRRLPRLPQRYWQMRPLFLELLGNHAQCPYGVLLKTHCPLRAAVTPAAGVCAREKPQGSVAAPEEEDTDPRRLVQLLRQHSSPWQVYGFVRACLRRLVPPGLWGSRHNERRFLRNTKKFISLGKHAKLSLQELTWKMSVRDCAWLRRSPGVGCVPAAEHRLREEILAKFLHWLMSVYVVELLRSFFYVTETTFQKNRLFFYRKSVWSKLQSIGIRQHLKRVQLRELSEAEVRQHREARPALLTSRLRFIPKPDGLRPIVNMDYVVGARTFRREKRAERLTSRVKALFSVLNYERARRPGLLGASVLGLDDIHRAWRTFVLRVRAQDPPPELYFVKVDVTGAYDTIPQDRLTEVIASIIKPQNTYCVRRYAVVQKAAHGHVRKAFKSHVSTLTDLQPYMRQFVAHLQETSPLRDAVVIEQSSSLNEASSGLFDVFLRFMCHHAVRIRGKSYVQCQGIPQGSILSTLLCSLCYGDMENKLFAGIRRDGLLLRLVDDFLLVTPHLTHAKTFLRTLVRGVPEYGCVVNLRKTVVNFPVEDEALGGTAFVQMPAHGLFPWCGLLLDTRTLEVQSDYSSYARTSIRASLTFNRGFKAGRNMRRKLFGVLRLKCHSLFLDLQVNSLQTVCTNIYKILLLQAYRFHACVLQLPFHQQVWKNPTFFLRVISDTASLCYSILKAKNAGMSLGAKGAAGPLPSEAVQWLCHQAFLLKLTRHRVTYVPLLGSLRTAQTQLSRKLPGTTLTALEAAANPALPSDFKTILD

Columns and labels:
Flag-LDHB [1] = target: Flag-LDHB (UniProt P07195); assay: co-IP; HEK293T cells co-transfected with Myc-TERT and Flag-LDHB or Flag-DKC1; lysates treated with RNase A (0.1mg/ml) before anti-Flag IP; blot with anti-Myc and anti-Flag
Flag-LDHB [2] = target: Flag-LDHB (UniProt P07195); assay: co-IP; 293T cells co-transfected with Myc-TERT and a Flag-tagged protein; NP40 lysis buffer (25 mM HEPES-KOH pH 7.5, 1.5 mM MgCl2, 150 mM KCl, 0.5% NP40, 10% glycerol, 5 mM beta-mercaptoethanol); anti-flag M2 affinity gel, 4°C, 4 h; blot with anti-Myc and anti-Flag

Which binding (Flag-LDHB [1]) does the source give for Myc-TERT (from UniProt O14746 1-1132) here?
The binding was “binds”.

What about the binding (Flag-LDHB [2]) of the same substance?
Its binding is “binds”.
